The list is a part of this screen's results and no random one: it is rich in T/C values a quarter to a half above the control, in often repeated tests (any T/C) and in doses without a T/C. Other doses and runs of a compound stand elsewhere. T/C: endpoint of the treated group in % of that of the vehicle group. Some doses have a count of surviving animals in place of a T/C: the source holds a T/C of zero for them, seemingly a mark for toxic or unscored doses. Some survivor counts are full or nearly so, which does not show that the dose was tolerated: survival well below the control is almost never listed, so the zero probably covers shortened survival too. Survivors were counted at the toxicity check, usually on the fifth day, unless a day is given; later deaths do not show. Schedule codes are those of the source, taken here to give the interval after Q, in days (D) or hours (H), and the number of doses after X. Some entries hold several experiments; the values are given in rising order. For survival time, this PubChem deposit counts one and a half times the control or more as active, and values a quarter to a half above the control carry no call in these data; other NCI protocols may use other cut-offs.
Test system: L1210 leukemia ip in BDF1 mice, survival T/C
Assay: NCI In Vivo Anticancer Drug Screen. Data for tumor model L1210 Leukemia (intraperitoneal) in B6D2F1 (BDF1) mice
Details: T/C endpoint: mean survival time, higher T/C = longer survival
[1] = dose: 100.0 mg/kg/injection, schedule: Q01DX001 (ip), vehicle: saline with Tween-80
[2] = dose: 200.0 mg/kg/injection, schedule: Q01DX001 (ip), vehicle: saline with Tween-80
[3] = dose: 400.0 mg/kg/injection, schedule: Q01DX001 (ip), vehicle: saline with Tween-80
[4] = dose: 400.0 mg/kg/injection, schedule: Q01DX009 (ip), vehicle: Klucel (hydroxypropylcellulose) (HPC)

O=[As](O)(CC(O)COc1ccccc1)c1ccccc1 (stereo unspecified)
survivor count (dose: 25.0 mg/kg/injection, schedule: Q01DX001 (ip), vehicle: saline with Tween-80): 0 of 6 and 2 of 6 | survivor count (dose: 50.0 mg/kg/injection, schedule: Q01DX001 (ip), vehicle: saline with Tween-80): 0 of 6 | survivor count [1]: 0 of 6 | survivor count [2]: 0 of 6 | survivor count [3]: 0 of 6

CC(C)/C=N\NC(=O)c1ccc[n+](C)c1
survivor count (dose: 200.0 mg/kg/injection, schedule: Q01DX009 (ip), vehicle: saline with Tween-80): 3 of 3

COc1ccc2c3c1OC1C(OC(C)=O)=CCC4C(C2)N(C)CCC314 (stereo unspecified)
survivor count (dose: 200.0 mg/kg/injection, schedule: Q01DX001 (ip), vehicle: saline): 0 of 4 | survivor count (dose: 400.0 mg/kg/injection, schedule: Q01DX001 (ip), vehicle: saline): 0 of 4

CCN1CC1
survivor count (dose: 25.0 mg/kg/injection, schedule: Q01DX009 (ip), vehicle: Klucel (hydroxypropylcellulose) (HPC)): 1 of 6 | survivor count (dose: 35.0 mg/kg/injection, schedule: Q04DX003 (ip), vehicle: Klucel (hydroxypropylcellulose) (HPC)): 4 of 6 | survivor count (dose: 55.0 mg/kg/injection, schedule: Q04DX003 (ip), vehicle: Klucel (hydroxypropylcellulose) (HPC)): 6 of 6 | survivor count (dose: 80.0 mg/kg/injection, schedule: Q04DX003 (ip), vehicle: Klucel (hydroxypropylcellulose) (HPC)): 0 of 6 | survivor count (dose: 100.0 mg/kg/injection, schedule: Q01DX001 (ip), vehicle: Klucel (hydroxypropylcellulose) (HPC)): 0 of 6 | survivor count (dose: 200.0 mg/kg/injection, schedule: Q01DX001 (ip), vehicle: Klucel (hydroxypropylcellulose) (HPC)): 0 of 6 | survivor count (dose: 400.0 mg/kg/injection, schedule: Q01DX001 (ip), vehicle: Klucel (hydroxypropylcellulose) (HPC)): 0 of 6

N#CCCP(CCC#N)CCCCP(CCC#N)CCC#N
survivor count [1]: 0 of 6 | survivor count [2]: 0 of 6 | survivor count [3]: 0 of 6

CN(C)Cc1cc(C(C)(C)CC(C)(C)C)cc(CN(C)C)c1O
survivor count [4]: 0 of 6

C=CC[Se]c1ncnc2c1c(C#N)cn2C1OC(CO)C(O)C1O (stereo unspecified)
survivor count (dose: 100.0 mg/kg/injection, schedule: Q01DX005 (ip), vehicle: saline): 0 of 6 | survivor count (dose: 200.0 mg/kg/injection, schedule: Q01DX005 (ip), vehicle: saline): 0 of 6

Clc1nc(Cl)n2c(Cl)cncc12
survivor count (dose: 100.0 mg/kg/injection, schedule: Q04DX003 (ip), vehicle: saline with Tween-80): 4 of 6 | survivor count (dose: 200.0 mg/kg/injection, schedule: Q04DX003 (ip), vehicle: saline with Tween-80): 0 of 6 | survivor count (dose: 400.0 mg/kg/injection, schedule: Q04DX003 (ip), vehicle: saline with Tween-80): 0 of 6

O=S(=O)(O)C(Nc1ccccc1)c1ccccc1 (stereo unspecified)
T/C (dose: 800.0 mg/kg/injection, schedule: Q01DX015 (ip), vehicle: water): 133 % of control | survivor count (dose: 1200.0 mg/kg/injection, schedule: Q01DX015 (ip), vehicle: water): 0 of 6

O=C(O)c1cccc(F)c1.[Ni]
survivor count (dose: 100.0 mg/kg/injection, schedule: Q04DX002 (ip), vehicle: gum acacia): 3 of 3 | survivor count (dose: 200.0 mg/kg/injection, schedule: Q04DX002 (ip), vehicle: gum acacia): 2 of 3 | survivor count (dose: 400.0 mg/kg/injection, schedule: Q04DX002 (ip), vehicle: gum acacia): 0 of 3

Cc1ccc(S(=O)(=O)OCC(CO)(COS(=O)(=O)c2ccc(C)cc2)[N+](=O)[O-])cc1
survivor count (dose: 400.0 mg/kg/injection, schedule: Q04DX003 (ip), vehicle: Klucel (hydroxypropylcellulose) (HPC)): 1 of 6

Cc1cc(N=Nc2ccc(N(C)C)cc2)cc(C)[n+]1[O-]
survivor count [4]: 2 of 6

O=C(Nc1ccc([N+](=O)[O-])cc1)Oc1c(Cl)cc(Cl)c(Cl)c1[N+](=O)[O-]
survivor count (dose: 200.0 mg/kg/injection, schedule: Q04DX002 (ip), vehicle: Klucel (hydroxypropylcellulose) (HPC)): 0 of 3 | survivor count (dose: 400.0 mg/kg/injection, schedule: Q04DX002 (ip), vehicle: Klucel (hydroxypropylcellulose) (HPC)): 0 of 3

CC(C)(C(=O)O)C(C)(C)C(=O)O
survivor count (dose: 25.0 mg/kg/injection, schedule: Q01DX001 (ip), vehicle: saline): 0 of 3 | survivor count (dose: 50.0 mg/kg/injection, schedule: Q01DX001 (ip), vehicle: saline): 0 of 3 | survivor count (dose: 100.0 mg/kg/injection, schedule: Q01DX001 (ip), vehicle: saline): 0 of 3

— PubChem BioAssay AID248 (DTP/NCI, 2004)
